This is one part of the list. Single values are uncertain here, since repeats match poorly.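 The human kidney-derived cells carry a stably integrated construct of eight TEAD-binding elements driving luciferase, read by luminescence in a drug-repurposing library screen. A compound counts as a hit when its signal is more than five robust Z scores above the plate mean.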
Test system: HEK293A TEAD-LUC reporter
Assay: TEAD-luciferase reporter activity (YAP activation), robust Z score vs plate; higher = stronger YAP/TEAD activation
Details: 24 h

SMILES: CN(C)CCOC(c1ccc(Cl)cc1)c1ccccn1 (stereo not given) [carbinoxamine, Elan]
- TEAD-luciferase reporter activity (compound concentration: 2 uM): inactive: 1.67

SMILES: CN(C)CCOC(c1ccc(Cl)cc1)c1ccccn1 (stereo not given) [Carbinoxamine Maleate3505-38-2]
- TEAD-luciferase reporter activity (compound concentration: 200 nM): inactive: -0.987
- TEAD-luciferase reporter activity (compound concentration: 10 uM): inactive: -0.915

SMILES: Cc1ccc(C(=O)NC2CCN(Cc3cccc(-c4ccc(F)c(F)c4)c3)CC2)cc1
- TEAD-luciferase reporter activity (compound concentration: 200 nM): inactive: 2.73
- TEAD-luciferase reporter activity (compound concentration: 10 uM): inactive: -0.0944

SMILES: CC(C)[C@H](NC(=O)CNC(=O)[C@H](CCC(N)=O)NC(=O)[C@H](C)N)C(=O)O
- TEAD-luciferase reporter activity (compound concentration: 200 nM): inactive: 0.446
- TEAD-luciferase reporter activity (compound concentration: 2 uM): inactive: 0.456
- TEAD-luciferase reporter activity (compound concentration: 10 uM): inactive: 0.219

SMILES: [O-][n+]1ccccc1SSc1cccc[n+]1[O-] [bispyrithione]
- TEAD-luciferase reporter activity (compound concentration: 200 nM): inactive: -0.305
- TEAD-luciferase reporter activity (compound concentration: 2 uM): inactive: -3.84
- TEAD-luciferase reporter activity (compound concentration: 10 uM): inactive: -3.8

SMILES: CCOc1cc2ncc(C#N)c(Nc3ccc(OCc4cccc(F)c4)c(Cl)c3)c2cc1NC(=O)/C=C/CN(C)C
- TEAD-luciferase reporter activity (compound concentration: 200 nM): inactive: -1.6
- TEAD-luciferase reporter activity (compound concentration: 2 uM): inactive: -0.068
- TEAD-luciferase reporter activity (compound concentration: 10 uM): inactive: -2.26

SMILES: COC1(/C=C/COCc2ccc3c(ccc(=O)n3C)c2)CCOC(C)C1 (stereo not given)
- TEAD-luciferase reporter activity (compound concentration: 200 nM): inactive: 1.42
- TEAD-luciferase reporter activity (compound concentration: 2 uM): inactive: -0.388
- TEAD-luciferase reporter activity (compound concentration: 10 uM): inactive: -1.36

SMILES: C=C1C[C@H]2[C@@H]3CCC4=CC(=O)CC[C@@H]4[C@H]3CC[C@]2(C)[C@@]1(OC(C)=O)C(C)=O [Elcometrine]
- TEAD-luciferase reporter activity (compound concentration: 200 nM): inactive: -1.69
- TEAD-luciferase reporter activity (compound concentration: 2 uM): inactive: 0.503
- TEAD-luciferase reporter activity (compound concentration: 10 uM): active: 11.4

SMILES: CC[C@H]1[C@@H](O)[C@@H]2[C@H](CC[C@]3(C)[C@@H]([C@H](C)CCOS(=O)(=O)[O-])CC[C@@H]23)[C@@]2(C)CC[C@@H](O)C[C@@H]12
- TEAD-luciferase reporter activity (compound concentration: 200 nM): inactive: -1.54
- TEAD-luciferase reporter activity (compound concentration: 2 uM): inactive: -0.787
- TEAD-luciferase reporter activity (compound concentration: 10 uM): inactive: 4.33

SMILES: Cc1noc(/C(=C/c2ccccc2-c2cc(C(C)(C)S(C)(=O)=O)cc3cccnc23)c2ccc(S(C)(=O)=O)cc2)n1
- TEAD-luciferase reporter activity (compound concentration: 200 nM): inactive: -1.31
- TEAD-luciferase reporter activity (compound concentration: 2 uM): inactive: 0.296
- TEAD-luciferase reporter activity (compound concentration: 10 uM): inactive: 2.61

SMILES: CCN1CCC(CN2c3ccccc3Sc3ccccc32)C1 (stereo not given)
- TEAD-luciferase reporter activity (compound concentration: 200 nM): inactive: 1.81
- TEAD-luciferase reporter activity (compound concentration: 2 uM): inactive: 2.52
- TEAD-luciferase reporter activity (compound concentration: 10 uM): active: 7.15

SMILES: Oc1ccc2ccccc2c1
- TEAD-luciferase reporter activity (compound concentration: 200 nM): inactive: 0.095
- TEAD-luciferase reporter activity (compound concentration: 2 uM): inactive: -0.0599
- TEAD-luciferase reporter activity (compound concentration: 10 uM): inactive: 0.412

SMILES: COc1ccc(OCCCN(C)CCOc2ccc3c(c2)OCO3)c(C2Sc3ccccc3N(C)C2=O)c1 (stereo not given)
- TEAD-luciferase reporter activity (compound concentration: 200 nM): inactive: -2
- TEAD-luciferase reporter activity (compound concentration: 2 uM): inactive: 2.31
- TEAD-luciferase reporter activity (compound concentration: 10 uM): inactive: -0.0212

SMILES: [O-][n+]1cccc(C(Cl)=NOCC(O)CN2CCCCC2)c1 (stereo not given)
- TEAD-luciferase reporter activity (compound concentration: 200 nM): inactive: -0.373
- TEAD-luciferase reporter activity (compound concentration: 2 uM): inactive: 0.224
- TEAD-luciferase reporter activity (compound concentration: 10 uM): inactive: 1.02

SMILES: C[C@H](CCC(=O)NCCS(=O)(=O)O)[C@H]1CC[C@H]2[C@@H]3C[C@H](O)[C@@H]4C[C@H](O)CCC4(C)[C@H]3CCC12C (stereo not given in full) [Taurohyodeoxycholic Acid]
- TEAD-luciferase reporter activity (compound concentration: 200 nM): inactive: -0.207
- TEAD-luciferase reporter activity (compound concentration: 2 uM): inactive: -0.48
- TEAD-luciferase reporter activity (compound concentration: 10 uM): inactive: 0.265

SMILES: OC[C@H]1O[C@@H](n2cnc3c2NC=NC[C@H]3O)C[C@@H]1O [pentostatin]
- TEAD-luciferase reporter activity (compound concentration: 200 nM): inactive: -0.108
- TEAD-luciferase reporter activity (compound concentration: 2 uM): inactive: -0.298
- TEAD-luciferase reporter activity (compound concentration: 10 uM): inactive: -1.11

SMILES: OC[C@H]1O[C@@H](n2cnc3c2NC=NC[C@H]3O)C[C@@H]1O [pentostatin, Yamasa]
- TEAD-luciferase reporter activity (compound concentration: 2 uM): inactive: 0.16
